Values of other authors in patent US20090005413A1, “Novel Salt of Montelukast” (INSTYTUT FARMACEUTYCZNY, priority 2004, published 2009).
At least one structure is not confirmed: it was looked up by name or label, or the drawing left a doubt.

Conditions: amorphous form prepared by lyophilization; according to WO 03066598

In the case of `CC(C)(O)c1ccccc1CC[C@@H](SCC1(CC(=O)O)CC1)c1cccc(/C=C/c2ccc3ccc(Cl)cc3n2)c1` [montelukast sodium], the hygroscopicity is given as “very hygroscopic”.
